## Results of single-concentration screens

Sequences of proteins named here, by UniProt entry; tags and fusion partners are left off. Residues count along the entry.
UniProt Q4DA54, 1-478: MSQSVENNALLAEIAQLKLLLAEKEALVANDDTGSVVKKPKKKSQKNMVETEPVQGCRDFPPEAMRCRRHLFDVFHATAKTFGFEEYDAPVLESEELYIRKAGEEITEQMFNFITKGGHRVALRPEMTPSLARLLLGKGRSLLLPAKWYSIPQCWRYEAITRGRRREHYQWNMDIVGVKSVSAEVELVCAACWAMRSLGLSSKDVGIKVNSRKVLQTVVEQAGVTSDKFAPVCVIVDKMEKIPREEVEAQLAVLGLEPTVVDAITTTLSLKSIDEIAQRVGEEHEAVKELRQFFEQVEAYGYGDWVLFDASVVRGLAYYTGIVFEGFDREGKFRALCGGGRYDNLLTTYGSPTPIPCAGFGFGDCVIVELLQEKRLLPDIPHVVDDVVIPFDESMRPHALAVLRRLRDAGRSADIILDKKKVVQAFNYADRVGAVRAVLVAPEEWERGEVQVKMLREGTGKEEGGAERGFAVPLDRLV
UniProt A4I591, 1-473: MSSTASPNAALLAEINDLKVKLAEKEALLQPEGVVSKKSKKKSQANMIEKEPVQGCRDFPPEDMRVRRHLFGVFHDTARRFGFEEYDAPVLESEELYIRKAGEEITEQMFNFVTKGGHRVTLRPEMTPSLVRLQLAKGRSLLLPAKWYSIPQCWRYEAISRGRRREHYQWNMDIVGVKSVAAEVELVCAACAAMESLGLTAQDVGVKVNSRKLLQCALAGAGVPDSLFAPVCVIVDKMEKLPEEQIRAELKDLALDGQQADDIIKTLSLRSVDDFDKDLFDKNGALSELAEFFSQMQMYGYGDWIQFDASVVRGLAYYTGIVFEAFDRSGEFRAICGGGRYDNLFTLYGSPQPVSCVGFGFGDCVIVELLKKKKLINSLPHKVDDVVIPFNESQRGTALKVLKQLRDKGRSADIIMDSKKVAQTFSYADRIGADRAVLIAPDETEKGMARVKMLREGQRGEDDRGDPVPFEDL

The values are deposited in ChEMBL (CHEMBL3988442, “University of Dundee, Small-Polar-MMV Screening Library” (2021)).

A: 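Whole-parasite assay of Trypanosoma brucei over 72 hours; the read-out is not stated. Concentration: 30 µM. The record gives no direction; compounds that gave an IC50 in retests scored well above the rest, so higher reads as stronger inhibition. Values scatter widely below zero; nearly all retest evidence comes from the higher of the two concentrations used. Of about 64,000 compounds tested this way, about 940 (1.5%) reached 50% or more in at least one test.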
B: 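Histidine-tRNA ligase, Trypanosoma cruzi CL Brener (UniProt Q4DA54). Enzyme assay of histidyl-tRNA synthetase; the read-out is not stated. Compounds at 30 µM. Higher reads as stronger inhibition (inferred: compounds with an IC50 in retests scored well above the rest). About 69,000 compounds were tested under these conditions; 0.045% (about 31) showed 50% or more at least once.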
C: 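Enzyme assay of histidyl-tRNA synthetase; the read-out is not stated. Target: Histidine-tRNA ligase, Leishmania infantum (UniProt A4I591). Compounds at 30 µM. Higher reads as stronger inhibition (inferred: compounds with an IC50 in retests scored well above the rest). The assay is labelled LdHisRS but filed under L. infantum. About 69,000 compounds were tested under these conditions; 0.6% (about 410) showed 50% or more at least once.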

Each number is a percent effect as filed.
The controls that fix the scale are not given in the record; negative values are as filed.
This is an unselected part of the compounds tested.
A dash means the value is not listed here; it may have been measured.

For CC(O)CN1CCN(Cc2cccc(C#N)c2)CC1 (configuration not stated) the result was A: -50.99%; B: 6.349%; C: 13.7%.
For Cc1nnc(SC2CCc3ccccc3NC2=O)o1 (configuration not stated) the result was A: -34.07%; B: 2.484%; C: -2.5%.
For Cn1cccc1C(=O)NCc1cn2c(n1)CN(CC1CCOCC1)CC2.O=C(O)C(F)(F)F the result was A: -28.38%.
For COc1ccc(C(CO)NC(=O)Nc2cccnc2)cc1 (configuration not stated) the result was A: -17.67%; B: 4.167%; C: -1.923%.
For [H][C@]12CN(Cc3ccccc3CC)CC[C@@]1(O)CCN(S(=O)(=O)N(C)C)C2 the result was A: -25.2%.
For O=C1CC[C@H]2CN(c3ncc(F)cn3)CC[C@H]2N1CCc1c[nH]cn1 the result was B: 3.247%; C: 6.452%.
For O=C(Cc1ccncc1)N1CCC2(CC1)CC(c1ccccc1)CO2.O=C(O)C(F)(F)F (configuration not stated) the result was A: -14.57%.
For Cc1cccc(OCC(=O)N(C)C2CCN(CC3CCOC3)CC2)c1 (configuration not stated) the result was A: 0.6662%; B: 7.937%; C: 17.65%.
For Cc1ccccc1OCC(O)CN1CCC(Cn2cccn2)CC1 (configuration not stated) the result was B: 1.994%; C: 13.68%.
For CC[C@@H](Cn1ncc2ccccc2c1=O)NC(=O)c1cnc(C)cn1 the result was A: 0.02044%; B: 0%; C: 2.837%.
For Cc1cnn(CC2CN(Cc3cccc(OCC(N)=O)c3)CCO2)c1 (configuration not stated) the result was A: 12.77%; B: 2.29%; C: 0%.
For O=C(NCCc1noc(-c2ccccn2)n1)NCC1CCCC1 the result was A: -11%; B: 6.637%; C: 15.04%.
For O=S1(=O)c2ccccc2C(O)CN1CCO (configuration not stated) the result was A: -36.81%; B: 6.742%; C: 6.122%.
For O=C(O)C(F)(F)F.O=C1CCCC2(CCN(C(=O)c3ccccn3)CC2)N1 the result was A: -14.45%.
For O=C(c1cccnc1N1CCOCC1)N1CCCC(n2cccn2)C1 (configuration not stated) the result was B: 4.118%; C: 14.68%.
For COc1ccc(Cl)cc1-c1cc(NC(=O)CNC(=O)C2CC2)[nH]n1 the result was A: -25.84%; B: 7.027%; C: 13.68%.
For CC(C(=O)NCc1ccco1)N1CCN(Cc2nccn2C)CC1 (configuration not stated) the result was A: -14.93%; B: 8.287%; C: 7.292%.
For CCC(=O)N1CCc2[nH]cnc2C12CCN(CC1CCOC1)CC2 (configuration not stated) the result was A: -0.3816%; B: 2.703%; C: 13.7%.
For Cc1nc(C)n(Cc2cccc(NC(=O)N(C)CCC(C)O)c2)n1 (configuration not stated) the result was A: -32.39%; B: 2.521%; C: -1.754%.
For COc1ccc(Cc2ncc3c(n2)CN(C(=O)C(C)(C)C)C3)cc1 the result was A: -2.155%; B: 4.712%; C: 15.05%.
For NCc1csc(CCc2ccccc2)n1 the result was A: 9.11%; B: 3.03%; C: 1.587%.
For Cc1cc(C)cc(C(=O)NCCCNc2ncccn2)c1 the result was A: -17.39%; B: 6.897%; C: 8.065%.
For CCS(=O)(=O)N1CCC(c2nnc(CN3CCOCC3)n2C)CC1 the result was A: 19.42%; B: -2.075%; C: 14.56%.
For O=C(Nc1ccccc1)N1CCC(N2Cc3ncccc3C2=O)CC1 the result was A: -7.152%; B: 13.29%; C: 12.77%.
For Cc1ccc2c(c1)[C@@H](CC(=O)N1CCN(C)CC1)CCO2 the result was A: -13.01%; B: 0%; C: 8.571%.
For CSc1nnc(C2CCN(C(=O)N3CCCC3)CC2)n1C the result was A: 0.9128%; B: -0.3831%; C: 4.317%.
For CN1CCc2nc(C3CCCN(C(=O)CC4CCCCC4)C3)ncc2C1 (configuration not stated) the result was A: 2.955%; B: 24.18%; C: 33.33%.
For O=C(C1COc2ccccc2O1)N1Cc2cnn(CCO)c2C1 (configuration not stated) the result was A: -13.94%; B: 5.202%; C: 17.33%.
For CC(C)(C)CC(=O)NCC1CCCS1 (configuration not stated) the result was A: -13.18%; B: 5.357%; C: 22.58%.
For O=C(NC1CCCC1)c1ccnc(C2CCNCC2)c1 the result was B: 6%; C: 16.11%.
For CN(C(=O)CN1CCC(c2cc3ccccc3[nH]2)CC1)C(C)(C)C#N the result was A: -30.92%; B: 2.941%; C: 10%.
For COc1cccc(CN(C)Cc2[nH]c3ccccc3c2C)c1O the result was A: -56.34%; B: 3.03%; C: 2.222%.
For [H][C@]12CCN(C(=O)NC(C)C)CC[C@@]1([H])S(=O)(=O)N(Cc1cccc(Cl)c1)C2 the result was A: 1.228%.
For O=C(NCCn1cnnc1C1CC1)c1c(O)cc(F)cc1F the result was A: -20.66%; B: 8.911%; C: 12.09%.
For CCCN(C(=O)CN1CCn2c(nnc2C2CC2)C1)C1=CCCCC1 the result was A: -26.09%; B: 2.41%; C: 15.38%.
For COCC1CN(Cc2ccccn2)Cc2cn(C)nc21.O=C(O)C(F)(F)F.O=C(O)C(F)(F)F.O=C(O)C(F)(F)F (configuration not stated) the result was A: -10.04%.
For CC(C)c1nc(C2CCCN(C(=O)c3ccc(N(C)C)nn3)C2)no1 (configuration not stated) the result was B: 5.539%; C: 16.51%.
For CN(C)C(=O)N1CCC2(CC1)CN(CC1CC1)CC21CCNC1=O.O=C(O)C(F)(F)F (configuration not stated) the result was A: -9.37%.

The last 3 entries again:

compound	A	B	C
COCC1CN(Cc2ccccn2)Cc2cn(C)nc21.O=C(O)C(F)(F)F.O=C(O)C(F)(F)F.O=C(O)C(F)(F)F (configuration not stated)	-10.04	-	-
CC(C)c1nc(C2CCCN(C(=O)c3ccc(N(C)C)nn3)C2)no1 (configuration not stated)	-	5.539	16.51
CN(C)C(=O)N1CCC2(CC1)CN(CC1CC1)CC21CCNC1=O.O=C(O)C(F)(F)F (configuration not stated)	-9.37	-	-